Measured values published in patent publication US20240294544A1, “NEW SUBSTITUTED PYRIDINES AS FUNGICIDES” (BASF SE, priority 2021, published 2024).
Some entries share one result that the patent states for a list of compounds.

Assays:
Corynespora cassiicola = test: Example 14: activity against Corynespora cassiicola in the microtiterplate test; format: cell-based; settings: 31 ppm active substance; DOB media (ph 7); relative to compound-free control (100%)
Leptosphaeria nodorum = test: Example 8: activity against Leptosphaeria nodorum in the microtiterplate test; format: cell-based; settings: 31 ppm active substance; DOB media (ph 7); relative to compound-free control (100%)
Fusarium gramminearis = test: Example 9: activity against Fusarium gramminearis in the microtiterplate test; format: cell-based; settings: 31 ppm active substance; DOB media (ph 7); relative to compound-free control (100%)
Botrytis cinerea [1] = test: Example 3: activity against the grey mold Botrytis cinerea in the microtiterplate test; format: cell-based; settings: 31 ppm active substance; relative to compound-free control (100%)
Fusarium culmorum = test: Example 4: activity against Fusarium culmorum in the microtiterplate test; format: cell-based; settings: 31 ppm active substance; relative to compound-free control (100%)
Microdochium nivale = test: Example 6: activity against Microdochium nivale in the microtiterplate test; format: cell-based; settings: 31 ppm active substance; DOB media (ph 7); relative to compound-free control (100%)
Monilinia laxa = test: Example 10: activity against Monilinia laxa in the microtiterplate test; format: cell-based; settings: 31 ppm active substance; DOB media (ph 7); relative to compound-free control (100%)
[2] = tested on: Pyrenophora teres Qoi (FL129) resistant isolate; test: Example 12: activity against Pyrenophora teres Qoi (FL129) resistant isolate in the microtiterplate test; format: cell-based; settings: 31 ppm active substance; DOB media (ph 7); relative to compound-free control (100%)
[3] = tested on: Colletotrichum orbiculare; test: Example 7: activity against Colletotrichum orbiculare in the microtiterplate test; format: cell-based; settings: 31 ppm active substance; DOB media (ph 7); relative to compound-free control (100%)
[4] = tested on: Corynespora cassiicola (CORYCA-G) G413A mutant; test: Example 15: activity against Corynespora cassiicola (CORYCA-G) G413A mutant in the microtiterplate test; format: cell-based; settings: 31 ppm active substance; DOB media (ph 7); relative to compound-free control (100%)
Leptosphaeria maculans = test: Example 13: activity against Leptosphaeria maculans in the microtiterplate test; format: cell-based; settings: 31 ppm active substance; DOB media (ph 7); relative to compound-free control (100%)
Ustilago maydis = test: Example 11: activity against Ustilago maydis in the microtiterplate test; format: cell-based; settings: 31 ppm active substance; DOB media (ph 7); relative to compound-free control (100%)
Septoria tritici = test: Example 5: activity against the leaf blotch on wheat caused by Septoria tritici in the microtiterplate test; format: cell-based; settings: 31 ppm active substance; relative to compound-free control (100%)
Botrytis cinerea [5] = test: Example 18: preventative fungicidal control of Botrytis cinerea on leaves of green pepper (green house); format: in vivo; settings: 250 ppm, sprayed one day before inoculation; assessed after 5 days; untreated plants 100% infected

Compound | growth of the pathogen (Corynespora cassiicola) [%] | growth of the pathogen (Leptosphaeria nodorum) [%] | growth of the pathogen (Fusarium gramminearis) [%] | growth of the pathogen (Botrytis cinerea [1]) [%] | growth of the pathogen (Fusarium culmorum) [%] | growth of the pathogen (Microdochium nivale) [%] | growth of the pathogen (Monilinia laxa) [%] | growth of the pathogen [2] [%] | growth of the pathogen [3] [%] | growth of the pathogen [4] [%] | growth of the pathogen (Leptosphaeria maculans) [%] | growth of the pathogen (Ustilago maydis) [%] | growth of the pathogen (Septoria tritici) [%] | growth of the pathogen (visually assessed as % diseased leaf area) (Botrytis cinerea [5])
Cc1cc(C2=NC(C)(C)Oc3ccccc32)cnc1C [Ex-6] | ≤ 19 | ≤ 19 | ≤ 17 | ≤ 11 | ≤ 19 | ≤ 18 | ≤ 16 | ≤ 16 | ≤ 17 | ≤ 19 | ≤ 10 |  |  | 
CCC1(CC)N=C(c2cnc(C)c(C)c2)c2ccccc2O1 [Ex-7] |  |  |  |  |  |  | ≤ 16 |  |  |  |  | ≤ 19 |  | 
Cc1cc(C2=NC(C)(CC(C)(C)C)Oc3ccccc32)cnc1C (stereo not shown) [Ex-9] | ≤ 19 | ≤ 19 | ≤ 17 | ≤ 11 | ≤ 19 | ≤ 18 |  | ≤ 16 | ≤ 17 | ≤ 19 | ≤ 10 |  |  | 
Cc1cc(C2=NC3(CCCCC3)Oc3ccccc32)cnc1C [Ex-12] | ≤ 19 | ≤ 19 |  | ≤ 11 |  | ≤ 18 |  | ≤ 16 | ≤ 17 | ≤ 19 | ≤ 10 | ≤ 19 |  | 
Cc1cc(C2=NC3(CCC3)Oc3c2ccc(C)c3C)cnc1C [Ex-22] | ≤ 19 | ≤ 19 | ≤ 17 | ≤ 11 | ≤ 19 |  |  |  | ≤ 17 | ≤ 19 | ≤ 10 |  | ≤ 20 | 
CCC1(CC)N=C(c2cnc(C)c(C)c2)c2ccccc2O1 [Ex-23] | ≤ 19 | ≤ 19 |  | ≤ 11 |  | ≤ 18 |  | ≤ 16 | ≤ 17 | ≤ 19 | ≤ 10 |  | ≤ 20 | 
Cc1cc(C2=NC3(COC3)Oc3ccccc32)cnc1C [Ex-26] |  | ≤ 19 | ≤ 17 | ≤ 11 | ≤ 19 | ≤ 18 | ≤ 16 |  | ≤ 17 | ≤ 19 | ≤ 10 |  | ≤ 20 | 
Cc1cc(C2=NC3(CCOC3)Oc3ccccc32)cnc1C (stereo not shown) [Ex-27] | ≤ 19 | ≤ 19 |  | ≤ 11 | ≤ 19 | ≤ 18 | ≤ 16 | ≤ 16 | ≤ 17 | ≤ 19 |  |  |  | 
Cc1cc(C2=NC3(CCC3)Oc3c(F)cccc32)cnc1C [Ex-29] | ≤ 19 | ≤ 19 | ≤ 17 | ≤ 11 | ≤ 19 | ≤ 18 | ≤ 16 | ≤ 16 | ≤ 17 | ≤ 19 |  |  | ≤ 20 | 
Cc1cc(C2=NC3(CCC3)Oc3ccccc32)cnc1C [Ex-32] | ≤ 19 | ≤ 19 |  | ≤ 11 | ≤ 19 | ≤ 18 | ≤ 16 | ≤ 16 | ≤ 17 | ≤ 19 | ≤ 10 |  |  | 
Cc1cc(C2=NC(C)(Cc3ccccc3)Oc3ccccc32)cnc1C(F)F (stereo not shown) [Ex-45] | ≤ 19 | ≤ 19 |  | ≤ 11 |  | ≤ 18 |  | ≤ 16 | ≤ 17 | ≤ 19 | ≤ 10 |  |  | at most 15%
Cc1cc(C2=NC(C)(OCC(C)(C)C)Oc3c(F)cccc32)cnc1C(F)F (stereo not shown) [Ex-48] | ≤ 19 | ≤ 19 |  | ≤ 11 |  | ≤ 18 | ≤ 16 | ≤ 16 | ≤ 17 | ≤ 19 | ≤ 10 |  |  | at most 15%
Cc1cc(C2=NC(C)(c3ccc(F)cc3)Oc3ccccc32)cnc1C(F)F (stereo not shown) [Ex-52] | ≤ 19 | ≤ 19 |  | ≤ 11 |  | ≤ 18 | ≤ 16 | ≤ 16 | ≤ 17 | ≤ 19 | ≤ 10 |  |  | at most 15%
Cc1cc(C2=NC(C)(C3CCC3)Oc3ccccc32)cnc1C(F)F (stereo not shown) [Ex-56] | ≤ 19 | ≤ 19 |  | ≤ 11 |  | ≤ 18 | ≤ 16 | ≤ 16 | ≤ 17 | ≤ 19 | ≤ 10 |  |  | at most 15%
Cc1cc(C2=NC(C)(C3CCC3)Oc3c(F)cccc32)cnc1C(F)F (stereo not shown) [Ex-57] | ≤ 19 | ≤ 19 |  | ≤ 11 |  | ≤ 18 | ≤ 16 | ≤ 16 | ≤ 17 | ≤ 19 | ≤ 10 |  |  | at most 15%
CCOC1(C)N=C(c2cnc(C(F)F)c(C)c2)c2ccccc2O1 (stereo not shown) [Ex-60] |  | ≤ 19 |  | ≤ 11 |  | ≤ 18 | ≤ 16 |  | ≤ 17 | ≤ 19 | ≤ 10 |  |  | at most 15%
Cc1cc(C2=NC(C)(C3CC3)Oc3ccccc32)cnc1C(F)F (stereo not shown) [Ex-62] | ≤ 19 | ≤ 19 |  | ≤ 11 |  | ≤ 18 | ≤ 16 | ≤ 16 | ≤ 17 | ≤ 19 | ≤ 10 |  |  | at most 15%
COc1ccc2c(c1F)OC(C)(C)N=C2c1cnc(C(F)F)c(C)c1 [Ex-64] | ≤ 19 | ≤ 19 |  | ≤ 11 | ≤ 19 | ≤ 18 |  |  |  | ≤ 19 | ≤ 10 |  |  | at most 15%
Cc1cc(C2=NC(C)(C)Oc3cc(Cl)ccc32)cnc1C [Ex-65] | ≤ 19 | ≤ 19 | ≤ 17 | ≤ 11 | ≤ 19 | ≤ 18 |  |  | ≤ 17 | ≤ 19 | ≤ 10 |  |  | 
Cc1cc(C2=NC(C)(C)Oc3cc(Cl)ccc32)cnc1C(F)F [Ex-66] | ≤ 19 | ≤ 19 | ≤ 17 | ≤ 11 |  | ≤ 18 |  |  |  | ≤ 19 | ≤ 10 |  | ≤ 20 | 
Cc1cc(C2=NC3(CCC3)Oc3cc(Cl)ccc32)cnc1C(F)F [Ex-68] | ≤ 19 | ≤ 19 |  | ≤ 11 |  | ≤ 18 | ≤ 16 |  |  | ≤ 19 | ≤ 10 |  | ≤ 20 | 
COc1ccc2c(c1F)OC1(CCC1)N=C2c1cnc(C)c(C)c1 [Ex-70] | ≤ 19 | ≤ 19 |  | ≤ 11 |  | ≤ 18 | ≤ 16 |  |  | ≤ 19 | ≤ 10 |  | ≤ 20 | at most 15%
Cc1cc(C2=NC(C)(C)Oc3c2ccc(C)c3C)cnc1C [Ex-74] |  |  |  | ≤ 11 | ≤ 19 |  |  |  |  |  |  |  | ≤ 20 | 
